Values joined by “and” are separate entries in the source; they are usually repeats but may differ in a detail not shown here. Identical values can stand only once. Counter-ions that a name gives are not always drawn. This is one part of the list. This data set is noisy: repeats of one test often differ as much as different tests do.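 HEK293T cells were given each compound shortly before transfection with a reporter in which red mCherry is followed by the SARS-CoV-2 frameshift element and then GFP in the −1 frame, so GFP appears only after frameshifting.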

Here are results for 40 molecules from the supplement of paper PMC8256030.

This assay deals with HEK293T. Description: percent viability (nuclei count) relative to control; higher = more viable cells. Particulars: 10 µM; 24 h.
On to `CCCOC(=O)Cn1cc(I)c(=O)c(I)c1` [propyliodone], for which the percent viability worked out at 171%. On to `C[C@@H](O)[C@H]1C(=O)N2C(C(=O)O)=C(S[C@@H]3CN[C@H](C(=O)N(C)C)C3)[C@H](C)[C@H]12` [Meropenem], for which the percent viability is 126%. As to `COc1ccc2cc([C@H](C)CO)ccc2c1`, the percent viability was determined as 330%. Under `NC[C@H]1CC[C@H](C(=O)O)CC1` stands 386%; under `CC1(C)O[C@@H]2C[C@H]3[C@@H]4C[C@H](F)C5=CC(=O)C=C[C@]5(C)[C@@]4(F)[C@@H](O)C[C@]3(C)[C@]2(C(=O)CO)O1` [fluocinolone acetonide], 254% and 147%; under `CCC(O)(c1ccccc1)c1cccc(C(F)(F)F)c1` (stereo not given) [flumecinol], 150%.

With `O=C(/C=C/c1c(C(=O)O)[nH]c2cc(Cl)cc(Cl)c12)Nc1ccccc1` [gavestinel], the percent viability came out at 93.1%.

On to `CC(Oc1c(Cl)cccc1Cl)C1=NCCN1` (stereo not given) [Lofexidine·HCl], for which the percent viability was 46.6%. Under `COC(=O)Nc1nc2cc(C(=O)c3ccccc3)ccc2[nH]1` stands 19.3%; under `CN(C)[C@@H]1C(=O)C(C(=O)NCNCCCC[C@H](N)C(=O)O)=C(O)[C@@]2(O)C(=O)C3=C(O)c4c(O)cccc4[C@@](C)(O)[C@H]3C[C@@H]12` [Lymecycline], 236%; under `O.O.O.O.O.O.O.O.O.O.O.O.O.O.O.O.O.O.O.O.O=S(=O)([O][Al])OC[C@H]1O[C@@](COS(=O)(=O)[O][Al])(O[C@H]2O[C@H](COS(=O)(=O)[O][Al])[C@@H](OS(=O)(=O)[O][Al])[C@H](OS(=O)(=O)[O][Al])[C@H]2OS(=O)(=O)[O][Al])[C@@H](OS(=O)(=O)[O][Al])[C@@H]1OS(=O)(=O)[O][Al].[Al]`, 179%.

As to `CN1CCN(c2c(F)cc3c(=O)c(C(=O)O)cn4c3c2SCC4)CC1` [rufloxacin], the percent viability is 257% and 149%. Under `O=C(O)C1CSC(C(=O)O)N1` (stereo not given) [tidiacic] stands 147%; under `O=C([O-])[C@H](O)[C@@H](O)[C@H](O)[C@H](O)CO.[Na+]`, 106%; under `CCOC(=O)NNc1nncc2ccccc12`, 198%. Regarding `CC(=O)Nc1c(I)c(C(=O)N[C@H]2C(O)O[C@H](CO)[C@@H](O)[C@@H]2O)c(I)c(N(C)C(C)=O)c1I` (stereo not given in full) [Amipaque], the percent viability is 197% and 220%. Under `CCCCCC1C(=O)N2C=C(c3ccccc3)c3ccccc3N2C1=O` (stereo not given) [cinnopentazone] stands 94.2%; under `CCN(CC)CCCN(c1ccccc1)C1Cc2ccccc2C1` [aprindine], 179%. With `Cc1cccn2c(=O)c(-c3nnn[nH]3)cnc12` [pemirolast], the percent viability was 69.5%. `NC[C@H]1O[C@H](O[C@H]2[C@H](O[C@@H]3O[C@H](CO)[C@@H](O)[C@H]3O)[C@@H](O)[C@H](N)C[C@@H]2N)[C@H](N)[C@@H](O)[C@@H]1O`: the percent viability was found to be 191%. Under `Nc1nc(/C(=C/CC(=O)O)C(=O)N[C@@H]2C(=O)N3C(C(=O)O)=CCS[C@H]23)cs1` [Cedax] stands 279%; under `CCCOc1cc(N)ccc1C(=O)OCCN(CC)CC`, 289%. Under `CCCc1cc(=O)[nH]c(=S)[nH]1` stands 175%; under `C=CC(N)CCC(=O)O` (stereo not given) [vigabatrin], 238%. Under `CC[C@H]1OC(=O)[C@H](C)[C@@H](O[C@H]2C[C@@](C)(OC)[C@@H](O)[C@H](C)O2)[C@H](C)[C@@H](O[C@@H]2O[C@H](C)C[C@H](N(C)C)[C@H]2O)[C@](C)(O)C[C@@H](C)CN(C)[C@H](C)[C@@H](O)[C@]1(C)O` stands 338%. On to `Cc1ncc([N+](=O)[O-])n1CC(O)CCl` (stereo not given) [ornidazole], for which the percent viability was 245%.

`C/N=C(/NC#N)NCCSCc1csc(NC(=N)N)n1` [Tiotidine]: the percent viability is 172%. Under `CCCCCCOC(=O)NC(=N)c1ccc(NCc2nc3cc(C(=O)N(CCC(=O)OCC)c4ccccn4)ccc3n2C)cc1` [dabigatran etexilate] stands 80.2%. `CCc1nnc(NS(=O)(=O)c2ccc(N)cc2)s1` [sulfaethidole]: the percent viability amounted to 219%. With `CC1=Nc2ccc(Cl)cc2S(=O)(=O)N1` [Diazoxide], the percent viability was found to be 141%. In the case of `CC(=O)SCC(Cc1ccccc1)C(=O)NCC(=O)OCc1ccccc1` (stereo not given) [racecadotril], the percent viability is 217% and 198%. Under `CCN(CC)C(=O)[C@@]1(c2ccccc2)C[C@H]1CN` [Levomilnacipran] stands 318%. Under `CCN(Cc1ccncc1)C(=O)C(CO)c1ccccc1` (stereo not given) [Tropicamide] stands 212%; under `CC[C@H]1OC(=O)[C@H](C)C(=O)[C@H](C)[C@@H](O[C@@H]2O[C@H](C)C[C@H](N(C)C)[C@H]2O)[C@](C)(OC)C[C@@H](C)C(=O)[C@H](C)[C@H]2N(CCCCn3cnc(-c4cccnc4)c3)C(=O)O[C@]12C` [Telithromycin], 342%; under `NC(=O)[C@@H]1CCCN1C(=O)[C@H](Cc1c[nH]cn1)NC(=O)[C@@H]1CCC(=O)N1` [protirelin], 165%. In the case of `O=C(O)c1cc(/N=N/c2ccc(S(=O)(=O)Nc3ccccn3)cc2)ccc1O` [Sulfasalazine], the percent viability worked out at 231%. Under `NC(=O)c1cc[n+](CC2=C(C(=O)[O-])N3C(=O)[C@@H](NC(=O)Cc4cccs4)[C@H]3SC2)cc1` stands 245%; under `Oc1ccccc1/C=N/Cc1ccccc1` [norletimol], 92.3%; under `Nc1ccc(S(=O)(=O)c2cnc(N)s2)cc1` [thiazosulfone], 110%. On to `CC(C)(C)NCC(O)COc1nsnc1N1CCOCC1` (stereo not given) [Blocarden], for which the percent viability is 244%.
